Measurements published in article doi:10.1101/2025.04.30.651471.
These are yes or no findings as the source states them, for the method shown. In cells and extracts the contact can be indirect. Some binding calls cover weakened binding; strength is not graded here.

Protein sequences, listed by entry. Tags and fused reporters are not part of them. Residues count along the entry.
UniProt P22888, residues 27-699: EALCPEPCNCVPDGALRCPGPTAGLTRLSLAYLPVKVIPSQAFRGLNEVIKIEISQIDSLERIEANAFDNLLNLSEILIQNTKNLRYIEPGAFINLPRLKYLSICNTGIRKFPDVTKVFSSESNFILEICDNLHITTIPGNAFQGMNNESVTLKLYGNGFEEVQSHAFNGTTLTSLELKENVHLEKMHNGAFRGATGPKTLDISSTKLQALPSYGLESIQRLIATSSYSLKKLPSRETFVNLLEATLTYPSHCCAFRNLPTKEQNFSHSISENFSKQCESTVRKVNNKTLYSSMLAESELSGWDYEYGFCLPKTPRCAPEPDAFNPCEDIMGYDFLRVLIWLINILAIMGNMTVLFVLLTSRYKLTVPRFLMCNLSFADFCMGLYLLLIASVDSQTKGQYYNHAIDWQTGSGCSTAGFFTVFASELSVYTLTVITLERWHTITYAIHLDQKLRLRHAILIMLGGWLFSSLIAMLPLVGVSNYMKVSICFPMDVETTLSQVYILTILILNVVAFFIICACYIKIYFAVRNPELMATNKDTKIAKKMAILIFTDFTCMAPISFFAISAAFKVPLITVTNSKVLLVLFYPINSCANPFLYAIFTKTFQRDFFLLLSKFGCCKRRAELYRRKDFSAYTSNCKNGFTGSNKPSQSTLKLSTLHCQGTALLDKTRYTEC
UniProt P63092: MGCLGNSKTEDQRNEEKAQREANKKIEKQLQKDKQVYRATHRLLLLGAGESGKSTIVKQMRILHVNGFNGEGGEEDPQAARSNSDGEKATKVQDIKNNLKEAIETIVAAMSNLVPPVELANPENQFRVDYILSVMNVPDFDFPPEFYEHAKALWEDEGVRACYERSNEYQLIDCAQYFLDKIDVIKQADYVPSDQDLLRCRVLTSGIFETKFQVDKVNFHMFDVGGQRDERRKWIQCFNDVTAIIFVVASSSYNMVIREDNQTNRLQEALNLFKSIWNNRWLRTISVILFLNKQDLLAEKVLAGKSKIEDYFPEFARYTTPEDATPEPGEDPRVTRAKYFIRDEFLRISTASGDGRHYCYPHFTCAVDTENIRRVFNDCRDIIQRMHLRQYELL

Molecular target: LHR C-terminally fused to the LgBiT nanoluciferase portion (human) (UniProt P22888)
Test: split reporter

With “endogenous Gαs (from UniProt P63092 1-394)” the binding was “binds”.
